Data taken from ChEMBL document CHEMBL3988442, “University of Dundee, Small-Polar-MMV Screening Library” (2021).

A: 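Whole-cell assay for inhibitors of Mycobacterium tuberculosis growth, labelled Cornell in the record; the read-out is not stated. The concentration is filed as 10 mM, unlikely as a test dose, so the dose is not known. The record gives no direction; compounds strong in two other growth screens of this library score well above the rest, so higher reads as stronger inhibition. Of about 53,000 compounds tested this way, about 900 (1.7%) reached 50% or more in at least one test.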
B: 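Assay on Mycobacterium tuberculosis, filed only as a heat shock assay from Cornell; the read-out is not stated. The concentration is filed as 10 mM, unlikely as a test dose, so the dose is not known. Direction is inferred from retests: higher values go with stronger inhibition. Of about 69,000 compounds tested this way, about 930 (1.4%) reached 50% or more in at least one test.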

Results are given as percent effect.
How 0% and 100% were set is not recorded. Most values in the screen are low, and negative values occur.
Compounds were drawn at random from those tested, without regard to their results.

- O=C(c1ccoc1)N1CCC(NCc2cccnc2)CC1 | A: 12.62%; B: -13.62%
- Cc1nc2sccn2c1CN(CCCN(C)C)Cc1ccco1.O=C(O)CC(O)(CC(=O)O)C(=O)O | A: 33.13%; B: -3.363%
- CCn1nnc2c1C(COC)CN(Cc1ccco1)C2 (stereo not given) | A: -55.23%; B: 15.84%
- Cn1cnnc1CN1CCC2(CCCN(C3CCCC3)C2=O)C1 (stereo not given) | A: 15.83%; B: -18.88%
- CCC(NCc1nccn1C)c1nc(C(F)(F)F)cs1 (stereo not given) | A: -8.839%; B: -11.17%
- Cc1ncsc1C(=O)N1CCN(CCC(C)C)CC1 | A: 4.719%; B: 5.245%
- CCOc1ncccc1Cn1cc(-c2cncnc2)nn1 | A: 22.71%; B: 7.985%
- O=C(C1CCOC1)N1CCN(Cc2ccc3c(c2)CCO3)CC1 (stereo not given) | A: 10.42%; B: -10.27%
- CC(C)CN1CCc2[nH]nc(C(=O)N3CCCC3)c2C1.O=C(O)C(F)(F)F | A: -32.92%; B: -7.809%
- CCOCCCNC(=O)c1cccn1Cc1cccnc1 | A: 7.072%; B: 9.879%
- CC(C)c1nc(C(=O)N(C)c2ccc(Br)cn2)cs1 | A: 16.75%; B: 1.238%
- CSCc1noc(CN2CCC3(CC2)CC(=O)N(CC(C)C)C3)n1 | B: -6.918%
- CCCC(=O)N1CCCCC1c1nc(N(C)C)ncc1-c1cc(C)no1 (stereo not given) | A: 20.58%; B: -6.735%
- O=C(NC1CC1)c1ccccc1NCc1cn2cccnc2n1 | A: 38.46%; B: 7.852%
- CCCn1nnnc1COC(=O)C1Cc2cc(Cl)ccc2O1 (stereo not given) | A: 1.254%; B: -0.05771%
- CC(C(=O)Nc1nccs1)N(C)Cc1cccc(C#N)c1 (stereo not given) | A: -3.534%; B: -24.3%
- O=C(c1ccn(-c2ccc(F)cc2)n1)N1CCCC(n2ccnc2)C1 (stereo not given) | A: 12.22%; B: -3.934%
- O=C(O)C(F)(F)F.O=C(O)C(F)(F)F.[H][C@]12CCN(Cc3cccs3)[C@@]1([H])C[C@H](C(=O)N1CCN(C)CC1)O2 | A: -0.8018%; B: 21.83%
- Cc1cnn(CC2CN(Cc3nc4ccccc4nc3C)CCO2)c1 (stereo not given) | B: 6.995%
- O=C1NCCN1CCNc1cc(-c2ccncc2)nc2ccnn12 | A: 9.803%; B: -39.13%
- CN(CCn1cnc(-c2ccccc2)c1-c1ncc[nH]1)S(C)(=O)=O | A: -23.92%; B: 13.81%
- Cn1ncc2c(N3CCCC(C)(O)C3)nc(-c3cccnc3)nc21 (stereo not given) | B: -19.52%
- O=C(O)C(F)(F)F.O=C(O)C(F)(F)F.O=C1CC2(CCN(Cc3cccnc3)C2)CN1c1cncnc1 (stereo not given) | A: -6.059%; B: -3.372%
- CCCc1nnc(N2C[C@@H](C)[C@@](C)(O)C2)s1 | A: -25.04%; B: 13.06%
- CCOc1ccc(NC(C)c2nnnn2-c2ccccc2)cc1CO (stereo not given) | A: -19.64%; B: -9.224%
- O=C(O)C(F)(F)F.[H][C@@]12CCN(c3ncccn3)C[C@@]1([H])O[C@@H](C(=O)NCCOC)C2 | B: -23.81%
- COc1ccc(CNC(=O)C(NC(=O)Cc2ccccc2)C(C)C)cn1 (stereo not given) | A: -38.43%; B: 9.417%
- CC(C)CS(=O)(=O)N1CCC2(CN(c3cccc(F)c3)C(=O)CN2C)C1.O=C(O)C(F)(F)F (stereo not given) | A: -35.85%; B: -18.4%
- Cc1cc(C)n(CC2CCCN2CC(=O)Nc2nnc(C)s2)n1 (stereo not given) | A: -1.425%; B: -1.032%
- O=C(c1cc(F)ccc1F)C1CCN(C(=O)c2ccccn2)CC1 | B: -1.165%
- Cc1cncc(C2CCN(Cc3ccc(S(C)(=O)=O)cc3)CC2)n1 | A: 35.39%; B: -0.2138%
- CCCNC(=O)Cn1c(-n2nc(C)cc2C)nc(CCC)cc1=O | A: 16.57%; B: 96.63%
- O=C(O)C(F)(F)F.[H][C@]12CN(Cc3ccoc3)C[C@@]1([H])OCCN(c1ncccn1)C2 | A: 8.619%; B: -2.175%
- CC(CO)CNC(=O)c1cc2cccc(F)c2o1 (stereo not given) | A: -45.57%; B: -23.12%
- O=C(O)C(F)(F)F.O=C1COC2(CCN(CC3CC3)CC2)CN1c1ccsc1 | A: -4.446%; B: -2.709%
- CCN(CCCc1ccccc1)CC1(C)Cc2c(N)nc(N)nc2O1 (stereo not given) | A: -33.23%; B: -4.905%
- O=c1[nH]cnc2[nH]c(N3CCOCC3)nc12 | A: -23.83%; B: -5.056%